Results reported in paper PMC7847308, “Nanoscopic anatomy of dynamic multi-protein complexes at membranes resolved by graphene-induced energy transfer” (eLife, 2021).
These are yes or no findings as the source states them, for the method shown. Some entries that bind do so weakly or less than the wild type. For part of these data: Where a sequence is shown, tags or fusion partners need not be part of it. Values belong to the binder of their own block, whether it stands above or below them.

Sequences of proteins named here, by UniProt entry; tags and fusion partners are left off.
UniProt P32939: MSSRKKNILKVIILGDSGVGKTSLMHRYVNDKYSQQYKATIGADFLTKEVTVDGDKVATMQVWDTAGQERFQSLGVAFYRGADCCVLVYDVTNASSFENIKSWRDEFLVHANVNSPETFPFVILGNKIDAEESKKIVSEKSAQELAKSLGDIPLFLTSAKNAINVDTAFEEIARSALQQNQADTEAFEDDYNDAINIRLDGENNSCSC

Legend:
[1] = biological target: T1, Vps41-TAP (S. cerevisiae), P38959; test: tandem affinity purification with SDS-PAGE and Coomassie staining; yeast lysate on IgG Sepharose by the TAP-tagged subunit, 2 h 4 C, washed, eluted by TEV cleavage; 300 mM NaCl (HOPS) or 150 mM NaCl (Mon1-Ccz1); conditions: remark: other sources report otherwise
T1 chain: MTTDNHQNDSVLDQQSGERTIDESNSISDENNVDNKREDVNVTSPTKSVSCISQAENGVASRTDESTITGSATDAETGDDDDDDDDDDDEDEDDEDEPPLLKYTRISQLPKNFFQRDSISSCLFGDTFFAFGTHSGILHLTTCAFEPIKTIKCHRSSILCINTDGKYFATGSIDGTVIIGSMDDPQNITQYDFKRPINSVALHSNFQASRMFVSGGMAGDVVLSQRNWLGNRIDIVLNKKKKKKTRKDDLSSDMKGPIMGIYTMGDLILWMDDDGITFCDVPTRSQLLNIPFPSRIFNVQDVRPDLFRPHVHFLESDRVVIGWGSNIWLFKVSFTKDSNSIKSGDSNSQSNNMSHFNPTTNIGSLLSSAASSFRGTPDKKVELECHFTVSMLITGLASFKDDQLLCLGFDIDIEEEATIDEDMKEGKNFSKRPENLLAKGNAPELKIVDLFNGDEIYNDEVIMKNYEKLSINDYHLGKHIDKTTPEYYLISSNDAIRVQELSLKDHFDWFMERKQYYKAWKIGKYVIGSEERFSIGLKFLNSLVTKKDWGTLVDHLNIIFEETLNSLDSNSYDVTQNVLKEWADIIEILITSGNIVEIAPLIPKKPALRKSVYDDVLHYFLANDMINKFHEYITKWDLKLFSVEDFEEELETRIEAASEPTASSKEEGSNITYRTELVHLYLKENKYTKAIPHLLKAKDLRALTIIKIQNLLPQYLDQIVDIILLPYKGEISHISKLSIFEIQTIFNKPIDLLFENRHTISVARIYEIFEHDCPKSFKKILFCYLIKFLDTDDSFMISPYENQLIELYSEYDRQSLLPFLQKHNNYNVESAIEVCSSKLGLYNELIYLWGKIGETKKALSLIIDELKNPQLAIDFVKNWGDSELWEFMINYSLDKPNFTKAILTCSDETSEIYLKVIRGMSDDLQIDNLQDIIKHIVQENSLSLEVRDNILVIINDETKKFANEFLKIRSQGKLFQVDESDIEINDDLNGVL

[2] = biological target: prenylated Ypt7 (S. cerevisiae) (UniProt P32939); test: SEC; 10 uM GDP-loaded Rab prenylated with 9 uM GDI, 1 uM Mrs6, 1 uM Bet2-Bet4 and geranylgeranyl pyrophosphate, 1 h 37 C; His-tagged enzymes removed on Ni-NTA; Rab:GDI complex isolated by size exclusion chromatography, SDS-PAGE; both purified
[3] = biological target: prenylated mNeonGreen-Ypt7 (S. cerevisiae) (UniProt P32939); test: as above

binding [1]: binds
B1: Vps39-yEGFP, Q07468 1-1049 (protein)
chain: MLRAQKLHSLKSSDITAILPTEQSQKLVLAKKNGDVEVYSRDGNTLKLFQVYPDLLQNAKNDPLPPVIENFYFANELSTIFAQCKETLILLSTTNLHEYDRIIDRRGINHCWLFERSHKNKEEKNTYLIYSTINTAKMRVLIWEGRTYKNMMEASLSYRKETIRSIYPGETGITLATDLGIYHWPYNKPSLIRIEKTVKNKFPKDMISALTELKEQAEKVIEKKPKKNSHFDAQSFSSMDRMSRKSSMSSLWYRTIRNERGNKIRYTFELDGNDATPMIIDGATKKIFKVELMHNNEEPFLIATDHATFSESNSEFDHMQYLSSNLLMLYNSSTIKFVDYENGFTFLQQKIPEGIKWVKNLSGTYFLVWTSNDEVQLFSYHVDDGSEDDDQESICGDINDPDFYQLWRKVLFYKFFIDSPHSKELCVSDNPEESLDICAMKLRDLTVMWCLRIFDKFQNYMVQLERSRNSRMIRSKCEEMIIKSIFDLFIKFWAPPQLVILKVFPSAISSLVLEITGQEHHCLLKEAEEVKETYDIPPHLLNRWCLPYLTDTRRHLQNLLSKENDDESRITWCYRDREIKQSFDFFLISNHDDVDLNTMLTLIDTVLFKCYLYYNPPMVGPFIRVENHCDSHVIVTELKIRHMFKDLIDFYYKRGNHEEALKFLTDLVDELENDNTDQKQRQKIDHGVKILVIYYLKKLSNPQLDVIFTYTDWLLNRHNDSIKEILSSIFFYDSQACSSRDHLKVYGYIKKFDKLLAIQYLEFAISTFRLEGNKLHTVLIKLYLENLDIPSTRIKLKSLLETTSVYEPRTILKLLNDAIESGSDQLPTNQLNFVKYLKIFPLSKLENHKEAVHILLDEIDDYKAATSYCNDVYQSDSTKGEELLLYLYSKLVSIYDSNRNSKLILNFLQDHGSKLNSAEIYKNLPQDISLYDIGRVVSQLLKKHTSKMDETRLEKALLQVELVATTYKLNERMSSYGVLSDSHKCPICKKVISNFGTDSISWFTREGRNIITHYNCGKVLQERFNAKNEKSSRIKQKTLGEVINELNNK

binding [2]: binds
binding [3]: binds
B2: Gdi1 (protein, UniProt P39958 1-451)
chain: MDQETIDTDYDVIVLGTGITECILSGLLSVDGKKVLHIDKQDHYGGEAASVTLSQLYEKFKQNPISKEERESKFGKDRDWNVDLIPKFLMANGELTNILIHTDVTRYVDFKQVSGSYVFKQGKIYKVPANEIEAISSPLMGIFEKRRMKKFLEWISSYKEDDLSTHQGLDLDKNTMDEVYYKFGLGNSTKEFIGHAMALWTNDDYLQQPARPSFERILLYCQSVARYGKSPYLYPMYGLGELPQGFARLSAIYGGTYMLDTPIDEVLYKKDTGKFEGVKTKLGTFKAPLVIADPTYFPEKCKSTGQRVIRAICILNHPVPNTSNADSLQIIIPQSQLGRKSDIYVAIVSDAHNVCSKGHYLAIISTIIETDKPHIELEPAFKLLGPIEEKFMGIAELFEPREDGSKDNIYLSRSYDASSHFESMTDDVKDIYFRVTGHPLVLKQRQEQEKQ
